Measurements as given in publication PMC7146536.

Biological target: T1, eukaryotic elongation factor 2 kinase (rat (endogenous in dorsal hippocampus)) (UniProt P70531)
T1 sequence: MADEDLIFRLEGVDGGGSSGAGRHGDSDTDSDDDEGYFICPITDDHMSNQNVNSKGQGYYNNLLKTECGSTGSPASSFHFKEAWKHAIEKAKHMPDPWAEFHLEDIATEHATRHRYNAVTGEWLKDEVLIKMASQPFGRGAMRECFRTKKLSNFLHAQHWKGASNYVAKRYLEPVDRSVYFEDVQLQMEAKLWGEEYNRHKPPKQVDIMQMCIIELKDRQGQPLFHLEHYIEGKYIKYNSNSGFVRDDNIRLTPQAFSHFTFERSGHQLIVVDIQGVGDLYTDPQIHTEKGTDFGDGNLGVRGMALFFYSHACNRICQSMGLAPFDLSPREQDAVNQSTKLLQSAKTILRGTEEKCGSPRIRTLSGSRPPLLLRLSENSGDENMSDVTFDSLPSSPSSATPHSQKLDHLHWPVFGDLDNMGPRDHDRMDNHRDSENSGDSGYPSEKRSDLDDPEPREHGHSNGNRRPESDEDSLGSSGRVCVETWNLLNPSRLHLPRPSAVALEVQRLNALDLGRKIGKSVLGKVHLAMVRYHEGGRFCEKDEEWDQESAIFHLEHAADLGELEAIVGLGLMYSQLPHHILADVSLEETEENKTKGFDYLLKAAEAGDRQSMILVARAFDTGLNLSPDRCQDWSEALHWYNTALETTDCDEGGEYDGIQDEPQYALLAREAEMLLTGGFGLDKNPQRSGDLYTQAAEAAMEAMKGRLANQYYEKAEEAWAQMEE
Test: co-IP; dorsal hippocampus lysate (500 ug protein) of aged rats, untreated or co-treated with Cf-hGP and L. plantarum for 4 weeks; IP lysis buffer 25 mM Tris-HCl pH 7.4, 150 mM NaCl, 1% NP-40, EDTA, 5% glycerol; eEF2K antibody 1:50 overnight at 4 C, Protein A/G magnetic beads; blot probed for p-JNK and p-eEF2K

Q: How did the binding turn out when “c-Jun N-terminal kinase (rat (endogenous in dorsal hippocampus)) (enzyme)” was run?
A: Its binding is “binds”.

No constants are given. Whether binding was seen depends on the method and setting. Binding seen in cells or lysates may run through a third protein. A result given as binding can be weak or reduced; the word gives no strength.
